Laboratory results published in patent US20260001914A1, “MACROCYCLIC PEPTIDES TARGETING KRAS” (Merck Sharp & Dohme LLC, priority 2022, published 2026).
Part of at least one peptide drawing is inferred or uncertain, most often the ends. At least one compound was matched to its structure with a doubt left. *1 amine or outer side, *2 acyl side, *3 side chain or, on linkers, in order; H or OH if unused. Where a SMILES comes first, the peptide text is derived from it. Bridges are numbered along the chain shown (N, C = ends). [ ]: non-standard residue; d: D form. cBu(1-CO,cis-3-CH2NH) = O=C([C@H]1C[C@@H](CN[*:1])C1)[*:2]; NMeNva(5-imidazol-1-yl) = CN[C@@H](CCCn1ccnc1)C(=O)O; Nle(4-yne,6-yl) = O=C([C@H](CC#CC[*:3])N[*:1])[*:2]; Phe(4-guanidino) = N=C(N)Nc1ccc(C[C@H](N)C(=O)O)cc1; Ala(pyrimidin-5-yl) = N[C@@H](Cc1cncnc1)C(=O)O; X8 = CN([C@@H](Cc1ccc(F)nc1)C(=O)[*:2])[*:1]; Phe(2,4-F2) = N[C@@H](Cc1ccc(F)cc1F)C(=O)O; Phe(2,6-F2) = N[C@@H](Cc1c(F)cccc1F)C(=O)O; Phe(4-NH2) = Nc1ccc(C[C@H](N)C(=O)O)cc1; Phe(2-F) = N[C@@H](Cc1ccccc1F)C(=O)O; NMe3Pal = CN[C@@H](Cc1cccnc1)C(=O)O; X1 = O=C(C12CC(CN[*:1])(C1)C2)[*:2]; Aha = [N-]=[N+]=NCC[C@H](N)C(=O)O; Ala(cPr) = N[C@@H](CC1CC1)C(=O)O; NMeF = CN[C@@H](Cc1ccccc1)C(=O)O; PhLac = O=C(O)[C@@H](O)Cc1ccccc1; 3Pal = N[C@@H](Cc1cccnc1)C(=O)O; d(αMeC) = C[C@@](N)(CS)C(=O)O; Cba = N[C@@H](CC1CCC1)C(=O)O; hLeu = CC(C)CC[C@H](N)C(=O)O; αMeC = C[C@](N)(CS)C(=O)O; NMeA = CN[C@@H](C)C(=O)O; Nle = CCCC[C@H](N)C(=O)O; Orn = NCCC[C@H](N)C(=O)O

By UniProt entry, the sequences of proteins in these tests, tags left out. Residues count along the entry.
UniProt P01116, 1-188 isoform P01116-2 G12D: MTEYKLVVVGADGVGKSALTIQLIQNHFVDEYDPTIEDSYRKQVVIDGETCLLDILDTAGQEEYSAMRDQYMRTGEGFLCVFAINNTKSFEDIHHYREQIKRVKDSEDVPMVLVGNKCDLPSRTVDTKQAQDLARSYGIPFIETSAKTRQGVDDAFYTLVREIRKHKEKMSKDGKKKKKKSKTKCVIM

target: KRAS-G12D protein (Homo sapiens, UniProt P01116, G12D); assay: SOS-mediated nucleotide exchange assay (BODIPY-GDP / Tb-streptavidin TR-FRET); assay type: biochemical

Structure (SMILES) | EC50 [nM]
CCCC[C@@H]1NC(=O)[C@H](Cc2ccc(F)cc2F)NC(=O)[C@H](CC2CCC2)NC(=O)[C@H](Cc2cccnc2)NC(=O)[C@H](CCCNC(=N)N)NC(=O)[C@H](Cc2ccccc2)NC(=O)CSC[C@@](C)(C(N)=O)NC(=O)[C@H](Cc2cccnc2)N(C)C1=O [compound 37, cyclo(F-R-3Pal-cBuA-Phe24F2-Nle-NMe3Pal-aMeCl-ClAc)] ({CH2CO}-FR[3Pal][Cba][Phe(2,4-F2)][Nle][NMe3Pal][αMeC]-NH2; thioether N-8) | 1.35
CCC[C@@H]1NC(=O)[C@H](Cc2ccc(OC)cc2)NC(=O)[C@H](CC(C)C)NC(=O)[C@H](Cc2ccncc2)NC(=O)[C@H](CCCNC(=N)N)NC(=O)[C@H](Cc2cccc(F)c2)NC(=O)CSC[C@H](C(N)=O)NC(=O)[C@H](Cc2ccccc2)N(C)C1=O [compound 22, cyclo(Phe3F-R-4Pal-L-TyrOMe-Nva-NMeF-dCl-ClAc)] | 3750
CCCC[C@@H]1NC(=O)[C@H](Cc2c(F)cccc2F)NC(=O)[C@H](CC2CCC2)NC(=O)[C@H](Cc2cccnc2)NC(=O)[C@H](CCCNC(=N)N)NC(=O)[C@H](Cc2ccccc2)NC(=O)CSC[C@@](C)(C(N)=O)NC(=O)[C@H](Cc2cccnc2)N(C)C1=O [compound 38, cyclo(F-R-3Pal-cBuA-Phe26F2-Nle-NMe3Pal-aMeCl-ClAc)] ({CH2CO}-FR[3Pal][Cba][Phe(2,6-F2)][Nle][NMe3Pal][αMeC]-NH2; thioether N-8) | 4.6
CC#CC[C@@H]1NC(=O)[C@H](CCCC)NC(=O)[C@H](Cc2cccnc2)NC(=O)[C@H](CCCNC(=N)N)NC(=O)[C@H](Cc2ccccc2)NC(=O)CSC[C@@](C)(C(N)=O)NC(=O)[C@H](Cc2cccnc2)N(C)C(=O)[C@H](CCCC)NC1=O [compound 43, cyclo(F-R-3Pal-Nle-PraMe-Nle-NMe3Pal-aMeCl-ClAc)] ({CH2CO}-FR[3Pal][Nle][Nle(4-yne,6-yl)][Nle][NMe3Pal][αMeC]-NH2; thioether N-8) | 3070
CCCC[C@@H]1NC(=O)[C@H](Cc2cccnc2)NC(=O)[C@H](CCCn2ccnc2)N(C)C(=O)[C@H](Cc2ccccc2)N(C)C(=O)[C@H]2C[C@@H](CNC(=O)[C@H](Cc3cccnc3)N(C)C(=O)[C@H](CCCC)NC(=O)[C@H](Cc3ccccc3F)NC1=O)C2 [compound 247, cyclo(NMeF-NMeNvalmid-3Pal-Nle-Phe2F-Nle-NMe3Pal-c3amCb1c)] (cyclo([3Pal][Nle][Phe(2-F)][Nle][NMe3Pal][cBu(1-CO,cis-3-CH2NH)][NMeF][NMeNva(5-imidazol-1-yl)])) | 1220
CCCC[C@@H]1NC(=O)[C@H](Cc2cccnc2)NC(=O)CN(C)C(=O)[C@H](Cc2ccccc2)OC(=O)C23CC(CNC(=O)[C@H](Cc4cccnc4)N(C)C(=O)[C@H](CCCC)NC(=O)[C@H](Cc4ccccc4F)NC1=O)(C2)C3 (single isomer, unassigned) [compound 261, cyclo(FLac-Sar-3Pal-Nle-Phe2F-Nle-NMe3Pal-amBCP)] | 2600
CCCC[C@@H]1NC(=O)[C@H](Cc2cccnc2)NC(=O)[C@H](CCCNC(=N)N)NC(=O)[C@@H](Cc2ccccc2)NC(=O)[C@H]2C[C@@H](CNC(=O)[C@H](Cc3ccccc3)N(C)C(=O)[C@H](CCCC)NC(=O)[C@H](Cc3ccc(OC)cc3)NC1=O)C2 [compound 206, cyclo(dF-R-3Pal-Nle-TyrOMe-Nle-NMeF-c3amCblc)] (cyclo([dF]R[3Pal][Nle]Y(Me)[Nle][NMeF][cBu(1-CO,cis-3-CH2NH)])) | 222
CCC[C@@H]1NC(=O)[C@H](Cc2ccc(OC)cc2)NC(=O)[C@H](CC(C)C)NC(=O)[C@H](Cc2ccncc2)NC(=O)[C@H](CCCNC(=N)N)NC(=O)[C@H](Cc2cccc3ccccc23)NC(=O)CSC[C@H](C(N)=O)NC(=O)[C@H](Cc2ccccc2)N(C)C1=O [compound 26, cyclo(INal-R-4Pal-L-TyrOMe-Nva-NMeF-dCl-ClAc)] | 935
CCCC[C@@H]1NC(=O)[C@H](Cc2ccc(NC(=N)N)cc2)NC(=O)[C@H](CCCNC(=N)N)NC(=O)[C@@H](Cc2ccccc2)NC(=O)[C@H]2C[C@@H](CNC(=O)[C@H](Cc3ccccc3)N(C)C(=O)[C@H](CCCC)NC(=O)[C@H](Cc3ccc(OC)cc3)NC1=O)C2 [compound 205, cyclo(dF-R-Phe4Gn-Nle-TyrOMe-Nle-NMeF-c3amCblc)] (cyclo([dF]R[Phe(4-guanidino)][Nle]Y(Me)[Nle][NMeF][cBu(1-CO,cis-3-CH2NH)])) | 17.3
COc1ccc(C[C@@H]2NC(=O)[C@H](CC3CCC3)NC(=O)[C@H](Cc3cccnc3)NC(=O)[C@H](CCCNC(=N)N)NC(=O)[C@H](Cc3ccccc3)NC(=O)CSC[C@](C)(C(N)=O)NC(=O)[C@@H]3CCC=CCC[C@H](NC2=O)C(=O)N3C)cc1 [SEQ ID NO: 185, cyclo(F-R-3Pal-cBuA-TyrOMe-HagNMeHag-daMeC-C1Ac)] | 238
CCCC[C@@H]1NC(=O)[C@H](Cc2ccccc2F)NC(=O)[C@H](CC2CCC2)NC(=O)[C@H](Cc2cncnc2)NC(=O)[C@H](CCCNC(=N)N)NC(=O)[C@H](Cc2ccccc2)NC(=O)CSC[C@@](C)(C(N)=O)NC(=O)[C@H](Cc2cccnc2)N(C)C1=O [compound 35, cyclo(F-R-PyrimAla-cBuA-Phe2F-Nle-NMe3Pal-aMeCl-ClAc)] ({CH2CO}-FR[Ala(pyrimidin-5-yl)][Cba][Phe(2-F)][Nle][NMe3Pal][αMeC]-NH2; thioether N-8) | 0.998
CCCC[C@@H]1NC(=O)[C@H](Cc2cccnc2)NC(=O)[C@H](CCN=[N+]=[N-])NC(=O)[C@H](Cc2ccccc2)NC(=O)[C@H]2C[C@@H](CNC(=O)[C@H](Cc3cccnc3)N(C)C(=O)[C@H](CCCC)NC(=O)[C@H](Cc3ccccc3F)NC1=O)C2 [compound 155, cyclo(F-DabN3-3Pal-Nle-Phe2F-Nle-NMe3Pal-c3amCblc)] (cyclo(F[Aha][3Pal][Nle][Phe(2-F)][Nle][NMe3Pal][cBu(1-CO,cis-3-CH2NH)])) | 830
CC(C)CC[C@@H]1NC(=O)[C@H](Cc2ccccc2F)NC(=O)[C@H](CC2CC2)NC(=O)[C@H](Cc2cccnc2)NC(=O)[C@H](C)N(C)C(=O)[C@H](Cc2ccccc2)OC(=O)C23CC(CNC(=O)[C@H](Cc4ccc(F)nc4)N(C)C1=O)(C2)C3 [compound 296, cyclo(FLac-NMeA-3Pal-cPrA-Phe2F-hL-NMe3Pal4F-amBCP)] (cyclo([3Pal][Ala(cPr)][Phe(2-F)][hLeu][X8][X1][PhLac][NMeA])) | 4
CCCC[C@@H]1NC(=O)[C@H](Cc2ccc(OC)cc2)NC(=O)[C@H](CC2CCC2)NC(=O)[C@H](Cc2cccnc2)NC(=O)[C@H](CCCN)NC(=O)[C@H](Cc2ccc(N)cc2)NC(=O)CSC[C@](C)(C(N)=O)NC(=O)[C@H](Cc2cccnc2)N(C)C1=O [compound 31, cyclo(Phe4NH2-Om-3Pal-cBuA-TyrOMe-Nle-NMe3Pal-daMeCl-ClAc)] ({CH2CO}-[Phe(4-NH2)][Orn][3Pal][Cba]Y(Me)[Nle][NMe3Pal][d(αMeC)]-NH2; thioether N-8; N-terminus and C-terminus assumed) | 1060
CCCC[C@@H]1NC(=O)[C@@H]2CCCCCC[C@@H](C(N)=O)NC(=O)[C@H](CSCC(=O)N[C@@H](Cc3ccccc3)C(=O)N[C@@H](CCCNC(=N)N)C(=O)N[C@@H](Cc3cccnc3)C(=O)N[C@@H](CC3CCC3)C(=O)N2)NC(=O)[C@H](Cc2cccnc2)N(C)C1=O [SEQ ID NO: 187, cyclo(C1Ac-F-R-3Pal-cBuA-Hag-Nle-NMe3Pal-C)] | 9150
